The list shows a part of the results.

This experiment has as its target T1, OsSMF1 (Oryza sativa, UniProt Q6ZLB0 1-436).
T1 sequence: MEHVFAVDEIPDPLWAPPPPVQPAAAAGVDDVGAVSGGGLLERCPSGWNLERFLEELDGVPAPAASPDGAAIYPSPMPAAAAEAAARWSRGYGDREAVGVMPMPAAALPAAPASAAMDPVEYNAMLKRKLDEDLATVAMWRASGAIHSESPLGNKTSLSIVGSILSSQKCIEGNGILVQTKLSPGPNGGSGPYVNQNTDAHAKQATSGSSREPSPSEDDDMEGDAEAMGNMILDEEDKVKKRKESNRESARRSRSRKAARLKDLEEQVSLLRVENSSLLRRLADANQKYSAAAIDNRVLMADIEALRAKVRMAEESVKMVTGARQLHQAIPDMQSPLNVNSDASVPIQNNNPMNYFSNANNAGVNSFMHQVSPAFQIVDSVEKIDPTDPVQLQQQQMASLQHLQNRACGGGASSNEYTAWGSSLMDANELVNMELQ
The experiment in a line: protein-binding microarray (RPBM); PBS, 2% BSA, 51.3 ng/ul salmon testes DNA, 50 uM zinc acetate, 200 nM TF, 25 C, 1 h; high values mean tight binding. Conditions: protein: recombinant; tags: N-terminal polyhistidine and DsRed monomer fusion (pET32a); chain copies: 2; label: CyDye5-dUTP incorporated in the synthesized complementary strand; 3' TTTTT single-stranded linker to array surface; dsDNA, one strand shown. An outline of the steps:
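The binding signal is fluorescence intensity per feature, in arbitrary units, read on an Axon 4000B scanner. Polyhistidine- and DsRed-tagged transcription factors (N-terminal fusions) from E. coli BL21-CodonPlus were purified on Ni–NTA and applied at 200 nM for 1 h at 25 °C to a double-stranded, BSA-blocked custom Agilent array in buffer with 50 µM zinc acetate.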
In the case of “AAATGCACTGCATTCGTTTCGGTGAGCTGAAAGAGCCTTACGGAGTCACCTAGTGCAG”, the binding signal was 3250 fluorescence intensity (a.u.).
The same measure for “AGATGGGAAATAAAGGGTGGTGACATGGCACACTGACATGCGGAGTCACCTAGTGCAG”: 10800 fluorescence intensity (a.u.).
The figure for “CAAACCAAGAGATCGCGCTCCTCTGACGTAAAGTCAGAGACGGAGTCACCTAGTGCAG” is 3950 fluorescence intensity (a.u.); for “TTTCGTCTGCCAACGCAAACGTGCGTGTGCACGAGTCGAGCGGAGTCACCTAGTGCAG” it is 4320 fluorescence intensity (a.u.).
Consider “GGTAATGGGAGAGGCTGATGTGGCGTGAAATCTCTTGCGTCGGAGTCACCTAGTGCAG”, for which the binding signal is 16800 fluorescence intensity (a.u.).
For “TCATCACCTCTGACGGGCCTTTATTTAGGGGCTCGTCAGACGGAGTCACCTAGTGCAG”, the binding signal was 3220 fluorescence intensity (a.u.).
For “GCTGGCGTGGACGCTCCCGCGTCGCGACACGTCAGCCCGACGGAGTCACCTAGTGCAG”, the binding signal is 24100 fluorescence intensity (a.u.).
With “GGTTGACAGGTAGGGCCCACGATGACTCAGCAGCCACGTACGGAGTCACCTAGTGCAG”, the binding signal was 19500 fluorescence intensity (a.u.).
The same measure for “AGGAACCCATTGAGCTACACATGGGCTGACTCAATTGCTACGGAGTCACCTAGTGCAG”: 3750 fluorescence intensity (a.u.).
The same measure for “GCCGGGCCGTGCCGCCCGTTTGGACACCTATACCTCTGGTCGGAGTCACCTAGTGCAG”: 3560 fluorescence intensity (a.u.).
The same measure for “AGAGTTGTGGACTTGTGGTTACGTGGGAGCAAATCTAGTTCGGAGTCACCTAGTGCAG”: 4000 fluorescence intensity (a.u.); for “TGTGCTGAGCTGTCATTTAGCCCGATCTCTCCACGTCAGACGGAGTCACCTAGTGCAG”: 29500 fluorescence intensity (a.u.).
Regarding “CGTCGTCTGCTGATTGGCTGATCTCCACGTCAGCAGAAAGCGGAGTCACCTAGTGCAG”, the binding signal is 29400 fluorescence intensity (a.u.).
The figure for “TATCCCAATTGATTTGTAAAGGTGTTCATTTACAACACACCGGAGTCACCTAGTGCAG” is 3330 fluorescence intensity (a.u.); for “ATTAGTGTTCCCAACCCATTCCAGCTAACACAGCCTAATGCGGAGTCACCTAGTGCAG” it is 3520 fluorescence intensity (a.u.); for “ATTTGTACATGGCCTTATGAAGTTATCCAGTCACTACACTCGGAGTCACCTAGTGCAG” it is 3940 fluorescence intensity (a.u.).
The same measure for “GGTTACCTCTGACAATGACACCCCAAATCGTCATTATCCTCGGAGTCACCTAGTGCAG”: 3830 fluorescence intensity (a.u.); for “CCCGCGTCGCATTCAACGCCACGCACACCACTCCACTCCACGGAGTCACCTAGTGCAG”: 3470 fluorescence intensity (a.u.); for “GCCGCCACCCACCCACTCGACCGTTGCCACCGCTGCTTCCCGGAGTCACCTAGTGCAG”: 3390 fluorescence intensity (a.u.).
Turning to “TATTGGAAAACTATGACAAGTCACAACTATAACGGCGAACCGGAGTCACCTAGTGCAG”, the binding signal is 5210 fluorescence intensity (a.u.).
As for “TTGGTAAGCAATCTAATCCAGTCATGATCCTCGTAATTACCGGAGTCACCTAGTGCAG”, the binding signal was 4940 fluorescence intensity (a.u.).
As to “CATAACCATGACACGACATGATTATTTCGAGCAGAGGCTGCGGAGTCACCTAGTGCAG”, the binding signal was 6340 fluorescence intensity (a.u.).
Turning to “CACATGAAATTTCCTTGTTCCCTTGTGATCGTCTGATCTCCGGAGTCACCTAGTGCAG”, the binding signal was 21100 fluorescence intensity (a.u.).
The figure for “CCGGTCGTCCGTCAGCATCCTCTCTTCCGTTGGTCATCCTCGGAGTCACCTAGTGCAG” is 4550 fluorescence intensity (a.u.).
The figure for “AATATAATTATTTATACTTCATAGATTTCATGTTCTTCTGCGGAGTCACCTAGTGCAG” is 3150 fluorescence intensity (a.u.); for “ATAACGAAAGTGCAAACCTGGCACTATTCTTTAGCACCGTCGGAGTCACCTAGTGCAG” it is 8730 fluorescence intensity (a.u.); for “ACCTCCAGCGCAACGTACGTACGTGTACCAGCGCGCCGCCCGGAGTCACCTAGTGCAG” it is 4180 fluorescence intensity (a.u.).
For “GACGCTCGGGGCTTGGTCGCCGTCATCACAGGTACGGATACGGAGTCACCTAGTGCAG”, the binding signal is 3930 fluorescence intensity (a.u.).
The same measure for “GAAATGCCACAGCTCGCCGATGAGCTCCTCCGTGACCGTCCGGAGTCACCTAGTGCAG”: 26000 fluorescence intensity (a.u.); for “AAGTCCTCCCACAAGTCAACCAACCAAAACCACGTCCAAACGGAGTCACCTAGTGCAG”: 3420 fluorescence intensity (a.u.); for “AACGAGAATTCATGGAATCCAAGAAAAGAGACACGTGTTGCGGAGTCACCTAGTGCAG”: 11500 fluorescence intensity (a.u.).
Take “GCGGCCACGCAGGATGACACCGTCGATGTCGAAGGCGATGCGGAGTCACCTAGTGCAG”: the binding signal was 3830 fluorescence intensity (a.u.).
Regarding “CCGTCCCTCTCACTCTCCCGTGGACCGTGCGCGCTCTAGCCGGAGTCACCTAGTGCAG”, the binding signal is 3770 fluorescence intensity (a.u.).
On to “GTAACTGCGACGCGCAAATCCCCGGTGCGATGACTCCTCCCGGAGTCACCTAGTGCAG”, for which the binding signal is 3200 fluorescence intensity (a.u.).
The same measure for “AATTGAAATCCTTCTACTTATTCCTCCAAATGCAACCTTTCGGAGTCACCTAGTGCAG”: 32900 fluorescence intensity (a.u.).
Regarding “TTAACCTAGTATCGGATATGACAATCCTAGTACTACATATCGGAGTCACCTAGTGCAG”, the binding signal was 4460 fluorescence intensity (a.u.).
The figure for “TCCCGCGCCGTCGCGCGCCAGCTGTCTCCCACTCGGGTGCCGGAGTCACCTAGTGCAG” is 3480 fluorescence intensity (a.u.); for “TCACGTAGAACGTAGAAAAGGTAACACCGCCACGTAGTCACGGAGTCACCTAGTGCAG” it is 9880 fluorescence intensity (a.u.).
The same measure for “ATGCGCCGCCGAGGAGGGGAAGCCCTAGGAAGGAAGAGAGCGGAGTCACCTAGTGCAG”: 31500 fluorescence intensity (a.u.); for “CGATCTCTACTTCTAAACGACCCTATATATGTGGCTATATCGGAGTCACCTAGTGCAG”: 3550 fluorescence intensity (a.u.); for “CTCTATACCAATAAAGACAACGTGGCAACTATTTCAAGGACGGAGTCACCTAGTGCAG”: 4740 fluorescence intensity (a.u.).
The same measure for “ACAGCCAATCAGAATAGGACACATCACCCAGTCTAAAACTCGGAGTCACCTAGTGCAG”: 3480 fluorescence intensity (a.u.).
